{
  "sequences": {"note": "Chains of the proteins cited; added tags and fusions are not shown.", "UniProt P18054, whole entry, looked up": "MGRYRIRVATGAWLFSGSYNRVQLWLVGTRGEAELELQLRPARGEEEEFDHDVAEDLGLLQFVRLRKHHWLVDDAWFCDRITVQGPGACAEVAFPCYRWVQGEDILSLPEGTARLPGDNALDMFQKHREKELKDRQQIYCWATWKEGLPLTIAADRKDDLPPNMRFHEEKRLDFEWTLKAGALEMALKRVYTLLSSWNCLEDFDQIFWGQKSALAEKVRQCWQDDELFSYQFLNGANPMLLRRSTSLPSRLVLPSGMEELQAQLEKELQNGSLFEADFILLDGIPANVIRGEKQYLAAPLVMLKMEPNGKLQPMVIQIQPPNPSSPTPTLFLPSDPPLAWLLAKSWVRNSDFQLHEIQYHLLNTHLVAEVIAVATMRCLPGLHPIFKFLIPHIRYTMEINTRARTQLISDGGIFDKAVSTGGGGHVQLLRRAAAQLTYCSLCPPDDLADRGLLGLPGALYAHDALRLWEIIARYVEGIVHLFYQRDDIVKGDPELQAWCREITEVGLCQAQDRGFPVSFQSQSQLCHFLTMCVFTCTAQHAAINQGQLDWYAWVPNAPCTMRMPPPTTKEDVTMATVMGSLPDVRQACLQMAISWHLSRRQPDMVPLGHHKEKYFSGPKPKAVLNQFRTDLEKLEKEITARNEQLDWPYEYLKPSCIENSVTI"},
  "source": "PubChem BioAssay AID1671190",
  "about": "(National Center for Advancing Translational Sciences (NCATS), 2021)",
  "note": "“And” between values parts separate entries of the source, which are not always exact repeats. Identical values can stand only once. In all, about 580,000 compounds went through this assay and about 6,100 (1.1%) were called active. Inconclusive results, whose numbers are uncertain, are shown with a selection of clear calls. The call rests on the fitted dose curve; in most records, active means well fitted inhibition curve with a large enough effect; inconclusive means small, poorly fitted or top-dose-only effect, or another doubt; inactive means no such curve, though single readings can be large or run the other way. A potency beside an inconclusive call is a rough fit, not a confirmed value. On the % scale 0 is the no-effect control and ±100 the full control effect; potency means the concentration at half of the fitted maximal effect.",
  "data": [
    {"biological_target": "Polyunsaturated fatty acid lipoxygenase ALOX12 (Homo sapiens) (UniProt P18054)", "experiment": "Primary qHTS assay for inhibitors of human arachidonate 12S-lipoxygenase (ALOX12): Round 2", "conditions": "purified 12hLO, xylenol orange hydroperoxide absorbance; activity change, negative = inhibition: at 108 µM (top of the series) unless noted", "procedure,_shortened": "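Purified human 12hLO at 150 nM in 25 mM Hepes, 0.01% Triton X-100, pH 7.0, preincubated 15 min at room temperature with compound. Reaction started with 40 uM arachidonic acid, 30 min at room temperature. Hydroperoxide measured by Fe-xylenol orange, 573/405 nm absorbance ratio.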", "values": [
      {"smiles": "O=C(CCl)Nc1cc(SCC(O)CO)cc([N+](=O)[O-])c1", "note": "(stereo not given)", "Potency": "inconclusive: 10 µM [inhibitor, full curve, poor fit]"},
      {"smiles": "COc1ccc(-n2nc(C3CCCN(C(=O)c4ccc(Cl)nc4)C3)[nH]c2=O)cc1", "note": "(stereo not given)", "Potency": "inconclusive: 39.8 µM [inhibitor, partial curve]"},
      {"smiles": "CCNc1oc(/C=C/c2cccc(OC)c2)nc1C#N", "Potency": "active: 44.7 µM"},
      {"smiles": "CCc1ccc(NC(=O)Cn2c(=O)n(CCCC(=O)NCc3ccccc3Cl)c(=O)c3ccccc32)cc1", "activity change, negative = inhibition": "inconclusive: -30.9% [inhibitor]"},
      {"smiles": "CCCCC(=O)Nc1ccc2oc(-c3ccc(F)cc3Cl)nc2c1", "Potency": "inconclusive: 100 µM [inhibitor, single point]"},
      {"smiles": "O=C(NCc1cccc(F)c1)c1nc2c(o1)CCN(Cc1ccc3[nH]ccc3c1)CC2", "Potency": "inconclusive: 28.2 µM [inhibitor, partial curve]"},
      {"smiles": "NS(=O)(=O)c1cccc(NC(=O)c2cccc(S(=O)(=O)N3CCCCCC3)c2)c1", "Potency": "inconclusive: 31.6 µM [inhibitor, partial curve, poor fit]"},
      {"smiles": "CC(=O)Nc1cccc(C(=O)N2CCC(n3cc(-c4nc(C(C)C)no4)nn3)C2)c1", "note": "(stereo not given)", "Potency": "inactive"},
      {"smiles": "COc1ccc(Sc2ccc(/C=C3\\C(=O)NN(c4ccccc4)C3=O)o2)cc1", "Potency": "active: 28.2 µM"},
      {"smiles": "Cc1ccc(-c2nc3cc(NC(=O)Cc4ccc(Cl)cc4)ccc3o2)cc1", "Potency": "inconclusive: 100 µM [inhibitor, partial curve, poor fit]"},
      {"smiles": "COC(=O)c1ccc(/C=C(/Cl)c2ncc(-c3ccc(Cl)cc3)o2)cc1", "Potency": "inconclusive: 31.6 µM [inhibitor, single point]"},
      {"smiles": "CCn1c(=O)c(=O)[nH]c2cc(C(=O)NCC3CCCCC3)ccc21", "Potency": "inactive"},
      {"smiles": "CCOC(=O)c1ccc(N2CC3=C(C2=O)C(c2ccc(OC)cc2)NC(=O)N3C)cc1", "note": "(stereo not given)", "Potency": "inconclusive: 44.7 µM [inhibitor, partial curve, poor fit]"},
      {"smiles": "O=C(Cn1ccn2nc(-c3ccc(F)cc3)c(CO)c2c1=O)NCCc1ccc(Cl)cc1", "Potency": "inconclusive: 89.1 µM [inhibitor, single point]"},
      {"smiles": "CCc1nc(Nc2ccc(OC)cc2OC)c2oc3ccccc3c2n1", "Potency": "inconclusive: 39.8 µM [inhibitor, partial curve, poor fit]"},
      {"smiles": "CCC1=NN2C(=N)/C(=C\\c3ccc(OCCOc4ccc(NC(C)=O)cc4)cc3)C(=O)N=C2S1", "Potency": "inactive"},
      {"smiles": "CCOC(=O)N1CCN(CCC(=O)c2ccc(Cl)cc2)CC1", "Potency": "inconclusive: 7.08 µM [inhibitor, full curve, poor fit]"},
      {"smiles": "Cc1cc(OC(C)C(=O)NNC(=O)Nc2ccc(F)cc2F)cc(C)c1Cl", "note": "(stereo not given)", "Potency": "inactive"},
      {"smiles": "COC[C@H]1CCCN1Cc1nc(C2(O)CCN(CCC(C)C)CC2)cs1", "Potency": "inactive"},
      {"smiles": "N#CC1=C(N)C(C#N)(C#N)C2(C(=O)Nc3ccccc32)C2CCCC=C12", "note": "(stereo not given)", "Potency": "inconclusive: 44.7 µM [inhibitor, partial curve, poor fit]"},
      {"smiles": "Cn1nc(C(=O)OCC(=O)NCCc2ccccc2)c2ccccc2c1=O", "Potency": "inconclusive: 44.7 µM [inhibitor, partial curve, poor fit]"},
      {"smiles": "CN(C)c1ccc(C=Nc2ccc(Nc3ccccc3)cc2)cc1", "Potency": "active: 7.94 µM"},
      {"smiles": "CC(C)C(=O)Nc1ccc(C(=O)NNC(=S)NC(=O)c2ccccc2[N+](=O)[O-])cc1", "Potency": "inconclusive: 79.4 µM [inhibitor, partial curve, poor fit]"},
      {"smiles": "CCc1ccccc1NC(=O)CN(C)C(=O)c1cc(C2CC2)nc2c1cnn2C(C)C", "Potency": "inconclusive: 126 µM [inhibitor, single point]"},
      {"smiles": "Cc1cc(C)c2c(CN3CCN(Cc4ccccc4)CC3)cc(=O)oc2c1", "Potency": "active: 14.1 µM and inconclusive: 31.6 µM [inhibitor, single point]"},
      {"smiles": "CCCCc1c(C)c(C#N)c2nc3ccccc3n2c1Nc1c(C)n(C)n(-c2ccccc2)c1=O", "Potency": "inactive"},
      {"smiles": "COc1ccc(NC(=O)C23CCC(=O)N2c2ccccc2C(=O)N3)cc1Cl", "note": "(stereo not given)", "Potency": "inconclusive: 44.7 µM [inhibitor, partial curve, poor fit]"},
      {"smiles": "CCOC(=O)C(NC(=O)c1cccc(C)c1)C(F)(F)F", "note": "(stereo not given)", "Potency": "inactive"},
      {"smiles": "CN(C)/C=C1/OC(=O)C(C#N)=C1c1ccc(Cl)cc1", "Potency": "inconclusive: 35.5 µM [inhibitor, partial curve]"},
      {"smiles": "CCC(=O)Nc1ccc(Cl)c(NC(=O)c2ccc3c(c2)OCO3)c1", "Potency": "inconclusive: 50.1 µM [inhibitor, partial curve, poor fit]"},
      {"smiles": "O=C(NCc1ccccc1)C(c1ccco1)N(C(=O)c1ccccn1)c1ccc(F)cc1", "note": "(stereo not given)", "Potency": "inconclusive: 35.5 µM [inhibitor, partial curve, poor fit]"},
      {"smiles": "CCN(CC)S(=O)(=O)c1ccc(S(=O)(=O)Nc2ccc(SC#N)cc2F)cc1", "Potency": "inactive"},
      {"smiles": "CC1CCC(NC(=O)c2ccc(CNc3c(NC4CCCCC4)c(=O)c3=O)cc2)CC1", "note": "(stereo not given)", "Potency": "inactive"},
      {"smiles": "Nc1nonc1-n1nnc(C(=O)N/N=C/c2cc(Br)ccc2O)c1CNc1ccccc1", "Potency": "inactive"},
      {"smiles": "CNC1CCN(c2ccc(-c3nc(CCCc4ccccc4)no3)cn2)CC1", "Potency": "inconclusive: 2 µM [inhibitor, full curve]"},
      {"smiles": "COc1ccc(-c2cc3c(=O)n(CC(=O)Nc4cccc(Cl)c4)nc(C)n3n2)cc1", "Potency": "inactive"},
      {"smiles": "Cc1cc(C)c(S(=O)(=O)n2ccc(-c3ccc(OCCN(C)c4ccccn4)cc3)n2)c(C)c1", "Potency": "inactive"},
      {"smiles": "CCOC(=O)[C@]12CCCC=C1N(Cc1ccccc1)C(=O)[C@H](CC(=O)N1CCOCC1)C2", "Potency": "inactive"},
      {"smiles": "N=c1n(CC(=O)O)c2ccccc2n1Cc1ccccc1Cl", "Potency": "inconclusive: 35.5 µM [inhibitor, partial curve, poor fit]"},
      {"smiles": "CC1C/C(=N\\NC(=S)NC(C)C)CC(C)(C)C1", "note": "(stereo not given)", "Potency": "inconclusive: 20 µM [inhibitor, partial curve, poor fit]"},
      {"smiles": "CC(C)C(=O)NC(=S)/C=C1/N(C)c2ccccc2C1(C)C", "Potency": "active: 35.5 µM"},
      {"smiles": "N#CC1=C(N)N(c2ccc(Br)cc2)C2=C(C(=O)CCC2)C1c1cccnc1", "note": "(stereo not given)", "Potency": "inconclusive: 63.1 µM [inhibitor, partial curve, poor fit]"},
      {"smiles": "COc1ccccc1-c1noc(CCCC(=O)Nc2ccc(S(=O)(=O)N3CCOCC3)cc2)n1", "Potency": "inconclusive: 25.1 µM [inhibitor, partial curve, poor fit]"},
      {"smiles": "CC(Sc1ccc2ccccc2n1)C(=O)Nc1ccc(C(N)=O)cc1", "note": "(stereo not given)", "Potency": "inconclusive: 44.7 µM [inhibitor, partial curve, poor fit]"},
      {"smiles": "O=C(c1ccco1)N1CCC2(CCN(Cc3cc(C(F)(F)F)cc(C(F)(F)F)c3)CC2)CC1", "Potency": "inconclusive: 28.2 µM [inhibitor, single point]"},
      {"smiles": "Cc1ccc(NC(=O)c2cc(N3C(=O)C=CC3=O)ccc2N2CCOCC2)cc1Cl", "Potency": "active: 12.6 µM"},
      {"smiles": "CN1C[C@@H]2[C@@H]3C(=O)N(Cc4ccccc4)C(=O)[C@@H]3[C@](Cc3ccccc3)(C1=O)N2C(=O)c1ccc(Cl)cc1", "Potency": "inconclusive: 63.1 µM [inhibitor, partial curve, poor fit]"},
      {"smiles": "COC(=O)C1=C(C)N(Cc2ccccc2C(F)(F)F)C(=NCc2ccc3c(c2)OCO3)NC1c1ccccc1", "note": "(stereo not given)", "Potency": "inconclusive: 56.2 µM [inhibitor, single point]"},
      {"smiles": "CCn1c(CSc2nnc(-c3ccncc3)n2C)nc2cc(C(=O)O)ccc21", "Potency": "inconclusive: 39.8 µM [inhibitor, partial curve, poor fit]"},
      {"smiles": "CCOC(=O)c1cc(-c2ccc(N3CCOCC3)cc2)nn1-c1ccccc1", "Potency": "inactive"},
      {"smiles": "O=C(C1[C@H]2CNC[C@@H]12)N1CCC(c2nccn2Cc2ccncc2)CC1", "note": "(stereo not given in full)", "Potency": "inconclusive: 6.31 µM [inhibitor, full curve]"},
      {"smiles": "CC(C)OC(=O)c1c(NC(=O)Cn2cnc([N+](=O)[O-])n2)sc2c1CCCC2", "Potency": "inconclusive: 44.7 µM [inhibitor, partial curve, poor fit]"},
      {"smiles": "S=c1[nH]nc2ccc3ccccc3n12", "Potency": "inconclusive: 44.7 µM [inhibitor, partial curve, poor fit]"},
      {"smiles": "O=C(NCc1ccccc1)c1nnc(CS(=O)(=O)c2ccccc2)o1", "Potency": "inactive"},
      {"smiles": "CC(C)(C)CC(=O)OCC(=O)Nc1cc(C(C)(C)C)nn1-c1ccccc1", "Potency": "inactive"},
      {"smiles": "Cc1cc(Cl)ccc1OCCN1CCN(CC2(O)CCCNC2)CC1", "note": "(stereo not given)", "Potency": "inconclusive: 14.1 µM [inhibitor, partial curve]"},
      {"smiles": "CC(C)c1ccc(C(=O)NC(C)c2ccccc2F)cc1", "note": "(stereo not given)", "Potency": "inconclusive: 50.1 µM [inhibitor, partial curve, poor fit]"},
      {"smiles": "Cc1ccc(C2=NN(C(=O)CN3C(=O)c4ccccc4S3(=O)=O)C(c3ccco3)C2)cc1", "note": "(stereo not given)", "Potency": "inactive"},
      {"smiles": "O=S(=O)(NCCO)c1ccc(Cl)cc1Cl", "Potency": "inconclusive: 50.1 µM [inhibitor, partial curve, poor fit]"},
      {"smiles": "CO[C@@H]1[C@H](O)CC[C@]2(O)CN(c3ccc(F)cc3)[C@](C)([C@H](O)CC=C(C)C)[C@@H]12", "Potency": "inconclusive: 35.5 µM [inhibitor, partial curve]"},
      {"smiles": "O=C(CSc1ccccc1C(=O)O)Nc1ccc2c(c1)OCO2", "Potency": "inconclusive: 126 µM [inhibitor, single point]"},
      {"smiles": "CC1CN(C2CCN(C(=O)COc3ccccc3)CC2)CC(C)O1", "note": "(stereo not given)", "Potency": "inconclusive: 0.0891 µM [inhibitor, full curve, poor fit]"},
      {"smiles": "O=C(CCCOc1ccccc1)N1CCCCC1", "Potency": "inactive"},
      {"smiles": "CNC(CC(=O)O)C(=O)O", "note": "(stereo not given)", "Potency": "inconclusive: 0.112 µM [inhibitor, full curve, poor fit]"},
      {"smiles": "COc1ccc(-c2ccnc3c(Br)c(C)nn23)cc1", "Potency": "inconclusive: 56.2 µM [inhibitor, partial curve, poor fit]"}
    ]}
  ]
}
